This test addresses luminal domain of human calnexin (residues 21-481) (human) (UniProt P27824). Put plainly: native gel or EMSA; clear-native PAGE (8% gel) and two-dimensional PAGE; 2 μM ERp57 with 2 μM CNX, 50 mM Tris/HCl pH 7.5, 0.05% CBB G-250, 10% glycerol, in the absence or presence of 1 mM CaCl2, 1 h at 30 °C then 15 min at 4 °C; both purified.

These are yes or no findings as the source states them, for the method shown.

B1: luminal domain of human calnexin (residues 21-481) (domain or fragment, UniProt P27824 21-481, looked up)
chain: HDGHDDDVIDIEDDLDDVIEEVEDSKPDTTAPPSSPKVTYKAPVPTGEVYFADSFDRGTLSGWILSKAKKDDTDDEIAKYDGKWEVEEMKESKLPGDKGLVLMSRAKHHAISAKLNKPFLFDTKPLIVQYEVNFQNGIECGGAYVKLLSKTPELNLDQFHDKTPYTIMFGPDKCGEDYKLHFIFRHKNPKTGIYEEKHAKRPDADLKTYFTDKKTHLYTLILNPDNSFEILVDQSVVNSGNLLNDMTPPVNPSREIEDPEDRKPEDWDERPKIPDPEAVKPDDWDEDAPAKIPDEEATKPEGWLDDEPEYVPDPDAEKPEDWDEDMDGEWEAPQIANPRCESAPGCGVWQRPVIDNPNYKGKWKPPMIDNPSYQGIWKPRKIPNPDFFEDLEPFRMTPFSAIGLELWSMTSDIFFDNFIICADRRIVDDWANDGWGLKKAADGAAEPGVVGQMIEAAEERP
notes: calnexin (CNX), human, luminal domain, residues 21-481; pET15b construct; the N-terminal His tag was removed from the plasmid and a His tag added at the C-terminus; also called CNX; ER-luminal domain of CNX
B1: the binding result is on record as “no binding (tested: 2 μM)”.

Source of the values: publication PMC8151781, “Ca^2+ Regulates ERp57-Calnexin Complex Formation” (Molecules, 2021).
